PubChem BioAssay AID686943, Drosophila RNAi Screening Center | 2013
In all, the deposit lists about 23,000 reagents; shown is a random part of those with a known target gene and a result. 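Extra replicates exist only for a retested subset of genes; insulin dose and duration not given; both raised and lowered dpERK matter.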 The record does not give: the amount of reagent, the time to read-out.

Assay: 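Search across the genome for regulators of signalling from receptor tyrosine kinase to ERK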 (primary screen)
Cells: Drosophila S2R+ haemocyte-like cells expressing YFP-tagged ERK (Rolled)
Reagents: long dsRNA against Drosophila genes
Conditions: insulin stimulation versus unstimulated cells; dose and duration not given
Detection: 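Per-plate z-scores of phospho-ERK immunostaining normalised to YFP-tagged ERK, measured with and without insulin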
Scale: replicate 1, z-score of dpERK with insulin and replicate 2, z-score of dpERK with insulin: higher = more active ERK per ERK-YFP after insulin; replicate 1, z-score of dpERK under basal conditions: higher = more basal active ERK per ERK-YFP; replicate 1, z-score of ERK-YFP with insulin: higher = more YFP-tagged ERK signal

| gene knocked down | dsRNA | replicate 1, z-score of dpERK with insulin | replicate 2, z-score of dpERK with insulin | replicate 1, z-score of dpERK under basal conditions | replicate 1, z-score of ERK-YFP with insulin |
| --- | --- | --- | --- | --- | --- |
| ERp60 (GeneID 36270) | DRSC07309 | 0.11 | 0.04 | -0.19 | 0.19 |
| Pex16 (GeneID 40293) | DRSC11750 | -0.26 | -0.13 | 0.6 | 0.63 |
| vas (retired record) (GeneID 34884) | DRSC22007 | 0.17 | -0.05 | -0.78 | 0.75 |
| CG4842 (GeneID 39817) | DRSC10453 | -0.26 | -0.89 | 0.14 | 0.39 |
| Hesr (GeneID 32800) | DRSC19965 | 0.06 | -0.49 | 0.16 | 0.4 |
| Cdc27 (GeneID 38798) | DRSC11112 | -3.25 | -4.9 | 2.67 | -4.57 |
| Schip1 (GeneID 34393) | DRSC02851 | -0.29 | 0.28 | 0.7 | 0.54 |
| CG5335 (GeneID 37140) | DRSC06931 | 0.36 | 1.01 | 1.5 | -1.36 |
| Ubi-p63E (GeneID 38456) | DRSC22016 | 0.31 | -1.38 | -1.26 | 0.2 |
| glob3 (GeneID 40726) | DRSC12261 | 1.01 | 0.05 | -1.18 | 0.35 |
| twi (GeneID 37655) | DRSC04720 | 0.11 | 1.62 | -0.13 | 1.44 |
| CG33796 (GeneID 3771914) | DRSC09417 | -0.19 | -0.04 | -0.72 | -0.01 |
| CG2656 (GeneID 40857) | DRSC12584 | -0.42 | 0.07 | -0.75 | 0.62 |
| Lk (GeneID 47746) | DRSC10022 | 0.99 | 0.78 | 0.54 | 0.13 |
| Mzt1 (GeneID 10178948) | DRSC07979 | -0.37 | 0.09 | 0.59 | 0.77 |
| Shab (GeneID 38352) | DRSC08013 | -0.14 | -0.13 | -0.59 | 0.46 |
| Shab (GeneID 38352) | DRSC08643 | 0.82 | 1.41 | 3.28 | 0.62 |
| Shab (GeneID 38352) | DRSC08699 | -1.27 | -0.38 | 0.45 | 0.47 |
| CG12769 (GeneID 35770) | DRSC06167 | 0.51 | 0.02 | 1.53 | 0.47 |
| qin (GeneID 42236) | DRSC14782 | 1.11 | 0.42 | 1.18 | -0.77 |
| qin (GeneID 42236) | DRSC14785 | 0.49 | -0.55 | -0.2 | -0.18 |
| Mi-2 (GeneID 40170) | DRSC11222 | 0.2 | -1.24 | -1.81 | -3.37 |
| SNF4Agamma (GeneID 42515) | DRSC13461 | -0.03 | 0.35 | -0.33 | -0.73 |
| SNF4Agamma (GeneID 42515) | DRSC13463 | -0.13 | 0.72 | 0 | -0.04 |
| SNF4Agamma (GeneID 42515) | DRSC15879 | 0.82 | -0.83 | 0.53 | -0.03 |
| SNF4Agamma (GeneID 42515) | DRSC16847 | -0.63 | -1.41 | 3.29 | -0.1 |
| pug (GeneID 41279) | DRSC17036 | -0.72 | -0.57 | -0.93 | 0.13 |
| CG7465 (GeneID 38553) | DRSC08592 | 0.6 | 0.49 | -0.93 | -0.77 |
| CG7465 (GeneID 38553) | DRSC22320 | 0.56 | 0.49 | -0.08 | -0.72 |
| CG31820 (GeneID 318961) | DRSC21318 | 0.02 | 0.25 | -0.71 | -0.26 |
| yellow-e2 (GeneID 41652) | DRSC15169 | 0.15 | 0.43 | 1.32 | 0.15 |
| salr (GeneID 34568) | DRSC03607 | 0.87 | 0.83 | -0.62 | -0.74 |
| CG4596 (GeneID 41312) | DRSC15608 | -0.71 | -0.08 | -0.47 | 0.97 |
| Sgs5bis (GeneID 42113) | DRSC16263 | -0.14 | 0.9 | 0.03 | 1.4 |
| CG31517 (GeneID 251711) | DRSC13010 | -0.18 | -0.19 | -1.44 | 0.38 |
| ac (GeneID 30981) | DRSC18734 | -3.15 | -2.13 | -2.1 | 0.86 |
| east (GeneID 46006) | DRSC18770 | -3.25 | -3.2 | -0.67 | 0.55 |

Individual results from above:
SNF4Agamma (GeneID 42515) [DRSC16847], replicate 1, z-score of dpERK with insulin = -0.63
Entry for Schip1 (GeneID 34393) [DRSC02851] in “replicate 1, z-score of dpERK under basal conditions”: 0.7
twi (GeneID 37655) [DRSC04720], replicate 1, z-score of dpERK with insulin → 0.11
For “replicate 1, z-score of dpERK with insulin”, qin (GeneID 42236) [DRSC14785] reads 0.49

The list goes on.
| gene knocked down | dsRNA | replicate 1, z-score of dpERK with insulin | replicate 2, z-score of dpERK with insulin | replicate 1, z-score of dpERK under basal conditions | replicate 1, z-score of ERK-YFP with insulin |
| --- | --- | --- | --- | --- | --- |
| CG7786 (GeneID 36802) | DRSC07045 | 0.67 | -0.6 | -0.56 | 0.22 |
| CG42269 (GeneID 38689) | DRSC10670 | 0.68 | 0.98 | -0.03 | 0.83 |
| CG42269 (GeneID 38689) | DRSC10672 | -0.07 | -0.16 | 0.8 | 0.67 |
| CG18765 (GeneID 59149) | DRSC15392 | 0.97 | 0.18 | 0.18 | -0.08 |
| CG8773 (GeneID 41634) | DRSC16444 | 1.1 | -0.92 | 0.07 | 1.94 |
| CG4935 (GeneID 34955) | DRSC01924 | 1.17 | 0.58 | 0.04 | -0.7 |
| CG4080 (GeneID 39079) | DRSC10398 | -0.47 | -0.99 | 0.13 | -0.01 |
| AkhR (GeneID 33942) | DRSC03329 | -0.47 | -0.11 | -0.11 | 0.02 |
| ND-49 (GeneID 43798) | DRSC17151 | -0.37 | 0.24 | 1.19 | 0.06 |
| Tak1 (GeneID 39659) | DRSC20390 | -2.31 | -2.34 | 0.14 | 0.46 |
| Tak1 (GeneID 39659) | DRSC20561 | -1.43 | -0.75 | -0.29 | -0.1 |
| Tak1 (GeneID 39659) | DRSC20562 | 1.61 | 0.9 | 0.98 | -0.63 |
| S6KL (GeneID 45970) | DRSC19349 | 0.02 | -0.79 | -0.17 | -0.05 |
| S6KL (GeneID 45970) | DRSC21578 | 0.32 | -0.1 | 0.08 | -0.36 |
| CG34033 (GeneID 3885602) | DRSC05190 | -0.2 | -0.67 | 2.17 | -0.16 |
| fid (GeneID 43148) | DRSC14885 | -0.44 | -0.15 | -0.01 | 1.52 |
| fid (GeneID 43148) | DRSC16464 | -2.11 | -1.6 | 1.12 | 2.4 |
| Hsp67Ba (GeneID 39076) | DRSC11191 | -0.92 | -0.24 | -0.81 | 1.72 |
| CG14929 (GeneID 3771749) | DRSC02411 | -0.01 | 0.49 | -0.26 | 0.08 |
| ifc (GeneID 33836) | DRSC03549 | 0.13 | -0.5 | -0.46 | 0.52 |
